Literature values, collected in patent publication US20220184108A1, “PHARMACEUTICAL AND NUTRITIONAL COMPOSITION TO MAXIMIZE NAD ENZYME'S HEALTH BENEFITS” (East West Products Corp., priority 2020, published 2022).
At least one compound was matched to its structure with a doubt left.

Test system: nuclear-mitochondrial communication
Details: mice given NAD for one week

SMILES: NC(=O)c1ccc[n+]([C@@H]2O[C@H](COP(=O)([O-])OP(=O)(O)OC[C@H]3O[C@@H](n4cnc5c(N)ncnc54)[C@H](O)[C@@H]3O)[C@@H](O)[C@H]2O)c1 [NAD, Nicotinamide adenine dinucleotide]
- nuclear-mitochondrial communication: improved nuclear-mitochondrial communication
